# Out of some 320,000 compounds screened, about 22,000 (6.9%) were called active. This list was built around the results that the source calls inconclusive (neither active nor inactive); the mix of calls is not that of the screen. The call rests on the fitted dose curve; in most records, active means well fitted inhibition curve with a large enough effect; inconclusive means small, poorly fitted or top-dose-only effect, or another doubt; inactive means no such curve, though single readings can be large or run the other way. Where the call is inconclusive, the potency comes from a doubtful curve fit.
# Assay: Primary qHTS for delayed death inhibitors of the malarial parasite plastid, 96 hour incubation
# Conditions: P. falciparum luciferase reporter growth; series mostly up to 28.7 µM; activity change, negative = inhibition: at the top concentration
# Summary of the method: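 P. falciparum expressing integrated firefly luciferase, in erythrocytes at 2% hematocrit, 0.05% parasitemia, incubated with compounds 96 h at 37 C, 5% CO2. Growth inhibition read as loss of luminescence; two-generation exposure targets delayed-death apicoplast inhibitors.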
# On the % scale 0 is the no-effect control and ±100 the full control effect; potency means the concentration at half of the fitted maximal effect.
Structure (SMILES),"activity change, negative = inhibition",Potency
Cc1ccc2cc(C#N)c(N3CCCN(C(=O)C4CCCO4)CC3)nc2c1C (centres undefined),inactive: 15.9%,
Cc1ccc(C(=O)CSc2nc3ccc(C(=O)NCCN4CCCCC4)cc3c(=O)[nH]2)cc1,inactive: 64.9%,
Cc1cc(Br)c2nc3c(c(C(=O)O)c2c1)CCCCC3,,active: 8.28 µM
Cc1nc(C)n(CCNS(=O)(=O)c2ccc(C)c(C)c2)n1,,"inconclusive: 5.22 µM [inhibitor, partial curve]"
O=[N+]([O-])c1cc(Cl)ccc1Nc1ccccc1,inactive: 0%,
COc1cc(C(=O)Nc2cccnc2)cc(OC)c1OC,,"inconclusive: 18.5 µM [inhibitor, single point]"
CCN(CC)c1ccc(C=C2C(=O)OC3(CCCC3)OC2=O)cc1,,"inconclusive: 18.5 µM [inhibitor, single point]"
NS(=O)(=O)c1ccc(CCNC(=O)CCC(=O)c2cccs2)cc1,,"inconclusive: 0.828 µM [inhibitor, partial curve, poor fit]"
CC(=O)N1c2ccc(S(=O)(=O)NCCc3ccc(Cl)cc3)cc2CC1C (centres undefined),,"inconclusive: 18.5 µM [inhibitor, single point]"
CC(C)OCCCNc1ncnc2c1nc1n2CCCC1,inactive: 33.5%,
CCOC(=O)c1cccc(-n2c(C)nc3ccccc3c2=O)c1,,active: 9.28 µM
Cc1ccc(CC(=O)N2CCC(c3nc4c(nnn4Cc4ccccc4)c(=O)[nH]3)CC2)cc1,,"inconclusive: 18.5 µM [inhibitor, single point]"
COc1ccc(S(=O)(=O)N2CCN(CC(=O)NCCc3cccs3)CC2)cc1,,"inconclusive: 0.0131 µM [inhibitor, full curve, poor fit]"
O=C(O)c1ccc2nc(-c3ccccc3)c(-c3ccccc3)nc2c1,,"inconclusive: 0.0415 µM [inhibitor, full curve, poor fit]"
CC(C(=O)c1ccc(-c2ccccc2)cc1)[n+]1cccc(Br)c1 (centres undefined),,active: 2.33 µM
CCOc1cc(C(=O)N(C)CC(=O)Nc2cccc(F)c2)ccc1OCC(=O)N1CCCCC1,,"inconclusive: 10.4 µM [inhibitor, single point]"
NS(=O)(=O)c1ccc(CCNc2ncnc3c2c(-c2ccccc2)cn3-c2ccc(F)cc2)cc1,,"inconclusive: 18.5 µM [inhibitor, single point]"
Cc1cccc(C(=O)Oc2ccccc2C2C[C@]3(C)CC(=O)NC3N2C(=O)c2cccc(C)c2)c1 (some centres undefined),,active: 5.86 µM
COc1ccc(Cc2nc3ccc(C(=O)N4CCC[C@H]4CO)cc3o2)cc1,inactive: 18.5%,
Cc1ccc(C(=O)OCC(=O)NC2CCCCC2)o1,inactive: 42.8%,
O=C(CCCNS(=O)(=O)c1cccs1)N1CCN(c2cccc(Cl)c2)CC1,,"inconclusive: 8.28 µM [inhibitor, partial curve, poor fit]"
CCc1cccc(C)c1NC(=O)C1CCN(c2nn3c(=O)cc(C)nc3s2)CC1,,active: 9.28 µM
COc1cccc(-c2sc3ccc(OC)cc3c2-c2ccc(O)cc2)c1,,"inconclusive: 14.7 µM [inhibitor, single point]"
COc1cc2nc(CC(C)C)n(NC(=O)c3ccccc3Br)c(=O)c2cc1OC,inactive: -26.7%,
CN1C(=O)C2(c3ccccc31)N(C)CC(c1ccccn1)C21SC(=S)N(Cc2ccco2)C1=O (centres undefined),,"inconclusive: 5.86 µM [inhibitor, partial curve, poor fit]"

Structure (SMILES),"activity change, negative = inhibition",Potency
O=CNC(Cc1ccccc1)C(=O)O (centres undefined),,"inconclusive: 18.5 µM [inhibitor, single point]"
Cc1noc(C)c1S(=O)(=O)N1CCN(C(c2ccccc2)c2ccc(Cl)cc2)CC1 (centres undefined),,"inconclusive: 10.4 µM [inhibitor, partial curve, poor fit]"
COc1ccccc1NS(=O)(=O)c1ccc(N2CCOCC2)c(NC(=O)c2ccco2)c1,,"inconclusive: 13.1 µM [inhibitor, single point]"
CCOC(=O)n1c(=O)oc2cc(S(=O)(=O)N3CCCCC3)ccc21,,active: 0.0029 µM
Cc1ccc(S(=O)(=O)Nc2ccc(N3CCOCC3)cc2)cc1,inactive: 36.3%,
CCOCC(=O)Nc1c(C(=O)Nc2ccc3c(c2)OCO3)oc2ccccc12,inactive: 124%,
COc1cccc(CNC(=O)CCNS(=O)(=O)c2cccs2)c1,,active: 1.17 µM
CCOc1ccc(CNC(=O)CCc2cn(Cc3ccccc3)c3ccccc23)cc1,,"inconclusive: 18.5 µM [inhibitor, single point]"
COc1cccc(C(=O)NCC(c2cccnc2)N2CCN(c3ccccc3OC)CC2)c1 (centres undefined),,"inconclusive: 0.0657 µM [inhibitor, full curve]"
O=C(/C=C/c1ccc(OCc2c(F)cccc2Cl)cc1)N1CCOCC1,,active: 10.4 µM
C=CCc1cccc(C=Nc2cc(Br)ccc2O)c1O,,active: 11.7 µM
CCOc1ccc(NC(=O)Cn2nc(C(N)=O)c3ccccc3c2=O)cc1S(=O)(=O)N1CCCC1,,"inconclusive: 20.8 µM [inhibitor, partial curve, poor fit]"
CCCN1CCN(C(=O)c2nn(-c3ccc(OC)cc3)c(=O)c3c2c2ccccc2n3C)CC1,,"inconclusive: 5.86 µM [inhibitor, partial curve, poor fit]"
COc1ccc(CN2CC(=O)N(c3ccc(Cl)cc3)C2=S)cc1OC,,"inconclusive: 2.08 µM [inhibitor, full curve, poor fit]"
Cc1ccc2oc(C(=O)Nc3ccc(S(=O)(=O)Nc4onc(C)c4C)cc3)c(C)c2c1,,"inconclusive: 18.5 µM [inhibitor, single point]"
Cc1nc(COc2cccc(Cl)c2)sc1C(=O)/C=C/N(C)C,inactive: 25.9%,
COc1ccc(OC)c(-c2csc(NC(=O)COC(=O)c3ccc(NC(=O)CC#N)cc3)n2)c1,,"inconclusive: 18.5 µM [inhibitor, single point]"
Cc1cccc(NC(=O)Nc2ccc(Br)cc2)n1,inactive: 1.41%,
CS(=O)c1ccc(-n2c(=O)n(Cc3ccccc3)c(=O)c3[nH]cnc32)cc1 (centres undefined),inactive: 0%,
CC(=O)Oc1ccc(-c2csc(Nc3ccc(Cl)cn3)n2)cc1,inactive: 10.7%,
Cc1cc2c(c(=O)o1)C1O[C@](c3ccsc3)(Cc3cc(C#N)ccc31)O2,,"inconclusive: 2.39 µM [inhibitor, single point]"
Fc1ccc(N/N=C2/CCSc3sccc32)c(F)c1,inactive: 0%,
CCOc1ccc(N(C(=O)c2snc(C(N)=O)c2N)C(C(=O)NC2CCCC2)c2ccncc2)cc1 (centres undefined),,"inconclusive: 11.7 µM [inhibitor, partial curve]"
Cc1cccc(-c2nc(CS(=O)CC(=O)NC(C)CCc3ccccc3)c(C)o2)c1 (centres undefined),inactive: -2.67%,
N#CCCn1ncc2ccccc21,,"inconclusive: 2.94 µM [inhibitor, partial curve, poor fit]"

Structure (SMILES),"activity change, negative = inhibition",Potency
Cc1ccc(/C=N/NC(=O)c2ccc(OC3CCCC3)cc2)o1,,"inconclusive: 4.15 µM [inhibitor, single point]"
N#C/C=C(/N)c1ccc(Br)cc1,,active: 10.4 µM
O=C(Nc1ccc(Oc2cccnc2)cc1)C1CCN(Cc2cc(Cl)ccc2O)CC1,,"inconclusive: 18.5 µM [inhibitor, single point]"
Nc1nc(Nc2ccccc2Cl)cc(=O)[nH]1,,"inconclusive: 8.28 µM [inhibitor, partial curve, poor fit]"
O=C(O)CCCC(=O)Nc1ccc(S(=O)(=O)Nc2nccs2)cc1,,"inconclusive: 18.5 µM [inhibitor, single point]"
c1ccc(-c2cn(-c3ccccc3)c3ncnc(NCCCN4CCOCC4)c23)cc1,,"inconclusive: 11.7 µM [inhibitor, single point]"
CC(=O)Nc1ccc(NC(=O)COc2ccccc2C(=O)Nc2cccc(Cl)c2Cl)cc1,inactive: -7.49%,
COCC1CCN(C(=O)c2cc(COc3ccc(F)cc3F)on2)C1 (centres undefined),inactive: -1.66%,
COc1cc(NS(=O)(=O)c2ccc(C)cc2)c2ncccc2c1,inactive: -3.09%,
Cc1ccc(C(=O)Nc2cccc(NC(=O)c3cccs3)c2)c(C)c1,,active: 11.7 µM
CN1CCN(c2nc(-c3ccc(C(C)(C)C)cc3)nc3ccccc23)CC1,inactive: 24.8%,
Cc1cccc(NC(=O)c2cccc(Cn3cc(Br)c([N+](=O)[O-])n3)c2)c1C,,"inconclusive: 18.5 µM [inhibitor, single point]"
COc1ccc(-c2nn(-c3ccccc3)cc2/C=N/NC(=O)c2ccc(Br)o2)cc1,,"inconclusive: 4.65 µM [inhibitor, single point]"
COc1cc(C(=O)N/N=c2/sc3ccccc3n2C)cc(OC)c1OC,,"inconclusive: 13.1 µM [inhibitor, single point]"
Cn1c(N)c(C(=O)COC(=O)CC2CC3CCC2C3)c(=O)n(C)c1=O (centres undefined),inactive: -61.4%,
CCN(CC)C(=O)CSc1nc2ccccc2c(=O)n1-c1ccccc1OC,inactive: 16%,
CCc1ccccc1NC(=O)N1CCCC(CCC(=O)N(C)CCc2ccccn2)C1 (centres undefined),,"inconclusive: 10.4 µM [inhibitor, single point]"
COc1ccccc1N1CCN(C2CCN(C(=O)c3cccc(F)c3)CC2)CC1,,active: 13.1 µM
Cc1ccc2c(c1)N(CC(=O)c1cccc(Cl)c1)C(=O)C(C)O2 (centres undefined),,active: 4.15 µM
Cc1ccc2cc(CN(CC(C)C)C(=O)C3CCCO3)c(=O)[nH]c2c1 (centres undefined),,"inconclusive: 18.5 µM [inhibitor, single point]"
CN1CCN(C(=S)SCC(=O)Nc2nc(-c3ccccc3)c(-c3ccccc3)o2)CC1,inactive: 2.37%,
C=CCn1c(SCCN2C(=O)c3ccccc3C2=O)nc2scc(-c3ccccc3)c2c1=O,inactive: -17%,
Cc1ccc(NC(=S)NCc2cccs2)c(C)c1,inactive: -16.1%,
CCN(CC)S(=O)(=O)c1ccc(/C=C/C(=O)OCC(=O)c2c(N)n(C)c(=O)n(C)c2=O)cc1,,"inconclusive: 18.5 µM [inhibitor, single point]"

# Compounds above containing a COOH group (4):
Structure (SMILES),"activity change, negative = inhibition",Potency
Cc1cc(Br)c2nc3c(c(C(=O)O)c2c1)CCCCC3,,active: 8.28 µM
O=C(O)c1ccc2nc(-c3ccccc3)c(-c3ccccc3)nc2c1,,"inconclusive: 0.0415 µM [inhibitor, full curve, poor fit]"
O=CNC(Cc1ccccc1)C(=O)O (centres undefined),,"inconclusive: 18.5 µM [inhibitor, single point]"
O=C(O)CCCC(=O)Nc1ccc(S(=O)(=O)Nc2nccs2)cc1,,"inconclusive: 18.5 µM [inhibitor, single point]"

# From PubChem BioAssay AID504834 (National Center for Advancing Translational Sciences (NCATS), 2011)
